Binding data for six substances are collected here from publication PMC4236683.

By UniProt entry, the sequences of proteins in these tests, tags left out. Where a name states a change or a piece, a line headed by the entry shows the natural chain unless it says otherwise. Residues count along the entry.
UniProt P70207, residues 35-1894: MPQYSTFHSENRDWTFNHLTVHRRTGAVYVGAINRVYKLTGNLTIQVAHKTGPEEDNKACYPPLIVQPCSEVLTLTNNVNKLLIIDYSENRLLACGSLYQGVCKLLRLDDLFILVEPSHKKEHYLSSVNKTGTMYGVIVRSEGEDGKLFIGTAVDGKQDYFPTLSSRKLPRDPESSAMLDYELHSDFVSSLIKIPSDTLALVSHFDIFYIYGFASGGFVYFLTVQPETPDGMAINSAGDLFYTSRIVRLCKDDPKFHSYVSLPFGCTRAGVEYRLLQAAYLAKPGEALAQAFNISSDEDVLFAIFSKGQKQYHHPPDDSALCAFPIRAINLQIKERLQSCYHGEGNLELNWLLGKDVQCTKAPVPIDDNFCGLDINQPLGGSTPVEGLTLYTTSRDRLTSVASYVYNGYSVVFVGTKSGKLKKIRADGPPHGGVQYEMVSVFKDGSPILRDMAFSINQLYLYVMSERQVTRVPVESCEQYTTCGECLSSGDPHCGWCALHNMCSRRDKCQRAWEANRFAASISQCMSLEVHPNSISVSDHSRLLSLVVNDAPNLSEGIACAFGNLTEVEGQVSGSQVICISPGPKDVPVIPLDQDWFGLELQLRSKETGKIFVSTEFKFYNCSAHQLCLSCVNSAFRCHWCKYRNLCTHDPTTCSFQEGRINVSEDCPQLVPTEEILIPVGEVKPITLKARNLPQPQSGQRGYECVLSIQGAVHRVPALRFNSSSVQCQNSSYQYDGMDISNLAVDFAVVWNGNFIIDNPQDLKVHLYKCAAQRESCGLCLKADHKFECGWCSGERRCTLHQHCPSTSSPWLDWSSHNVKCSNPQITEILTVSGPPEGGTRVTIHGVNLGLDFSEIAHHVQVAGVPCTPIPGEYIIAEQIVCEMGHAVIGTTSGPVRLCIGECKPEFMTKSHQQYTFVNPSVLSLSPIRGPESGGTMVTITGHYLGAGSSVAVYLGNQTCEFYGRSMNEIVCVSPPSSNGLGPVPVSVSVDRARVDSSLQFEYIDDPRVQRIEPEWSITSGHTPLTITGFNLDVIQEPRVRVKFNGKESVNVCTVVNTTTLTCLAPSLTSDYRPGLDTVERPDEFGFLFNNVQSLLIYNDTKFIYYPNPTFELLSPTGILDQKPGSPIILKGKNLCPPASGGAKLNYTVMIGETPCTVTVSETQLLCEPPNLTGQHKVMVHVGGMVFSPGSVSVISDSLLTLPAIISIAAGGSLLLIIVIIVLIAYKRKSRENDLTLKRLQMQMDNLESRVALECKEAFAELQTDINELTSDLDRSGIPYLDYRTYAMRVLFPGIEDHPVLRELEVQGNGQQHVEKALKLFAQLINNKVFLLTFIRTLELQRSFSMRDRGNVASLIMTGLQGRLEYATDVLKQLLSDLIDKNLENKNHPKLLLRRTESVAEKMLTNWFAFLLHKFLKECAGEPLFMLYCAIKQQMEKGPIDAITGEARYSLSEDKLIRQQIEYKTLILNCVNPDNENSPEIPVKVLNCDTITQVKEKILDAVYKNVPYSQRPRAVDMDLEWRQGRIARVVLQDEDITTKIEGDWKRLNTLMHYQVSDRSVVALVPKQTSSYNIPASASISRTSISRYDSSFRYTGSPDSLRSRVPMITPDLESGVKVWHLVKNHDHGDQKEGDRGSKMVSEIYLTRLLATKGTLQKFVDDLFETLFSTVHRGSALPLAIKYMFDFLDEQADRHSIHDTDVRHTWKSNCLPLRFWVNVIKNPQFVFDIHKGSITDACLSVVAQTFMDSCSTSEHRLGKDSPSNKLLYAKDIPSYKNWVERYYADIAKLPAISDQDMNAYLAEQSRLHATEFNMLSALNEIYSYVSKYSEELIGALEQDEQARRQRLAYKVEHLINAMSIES
UniProt P70208, residues 20-1872: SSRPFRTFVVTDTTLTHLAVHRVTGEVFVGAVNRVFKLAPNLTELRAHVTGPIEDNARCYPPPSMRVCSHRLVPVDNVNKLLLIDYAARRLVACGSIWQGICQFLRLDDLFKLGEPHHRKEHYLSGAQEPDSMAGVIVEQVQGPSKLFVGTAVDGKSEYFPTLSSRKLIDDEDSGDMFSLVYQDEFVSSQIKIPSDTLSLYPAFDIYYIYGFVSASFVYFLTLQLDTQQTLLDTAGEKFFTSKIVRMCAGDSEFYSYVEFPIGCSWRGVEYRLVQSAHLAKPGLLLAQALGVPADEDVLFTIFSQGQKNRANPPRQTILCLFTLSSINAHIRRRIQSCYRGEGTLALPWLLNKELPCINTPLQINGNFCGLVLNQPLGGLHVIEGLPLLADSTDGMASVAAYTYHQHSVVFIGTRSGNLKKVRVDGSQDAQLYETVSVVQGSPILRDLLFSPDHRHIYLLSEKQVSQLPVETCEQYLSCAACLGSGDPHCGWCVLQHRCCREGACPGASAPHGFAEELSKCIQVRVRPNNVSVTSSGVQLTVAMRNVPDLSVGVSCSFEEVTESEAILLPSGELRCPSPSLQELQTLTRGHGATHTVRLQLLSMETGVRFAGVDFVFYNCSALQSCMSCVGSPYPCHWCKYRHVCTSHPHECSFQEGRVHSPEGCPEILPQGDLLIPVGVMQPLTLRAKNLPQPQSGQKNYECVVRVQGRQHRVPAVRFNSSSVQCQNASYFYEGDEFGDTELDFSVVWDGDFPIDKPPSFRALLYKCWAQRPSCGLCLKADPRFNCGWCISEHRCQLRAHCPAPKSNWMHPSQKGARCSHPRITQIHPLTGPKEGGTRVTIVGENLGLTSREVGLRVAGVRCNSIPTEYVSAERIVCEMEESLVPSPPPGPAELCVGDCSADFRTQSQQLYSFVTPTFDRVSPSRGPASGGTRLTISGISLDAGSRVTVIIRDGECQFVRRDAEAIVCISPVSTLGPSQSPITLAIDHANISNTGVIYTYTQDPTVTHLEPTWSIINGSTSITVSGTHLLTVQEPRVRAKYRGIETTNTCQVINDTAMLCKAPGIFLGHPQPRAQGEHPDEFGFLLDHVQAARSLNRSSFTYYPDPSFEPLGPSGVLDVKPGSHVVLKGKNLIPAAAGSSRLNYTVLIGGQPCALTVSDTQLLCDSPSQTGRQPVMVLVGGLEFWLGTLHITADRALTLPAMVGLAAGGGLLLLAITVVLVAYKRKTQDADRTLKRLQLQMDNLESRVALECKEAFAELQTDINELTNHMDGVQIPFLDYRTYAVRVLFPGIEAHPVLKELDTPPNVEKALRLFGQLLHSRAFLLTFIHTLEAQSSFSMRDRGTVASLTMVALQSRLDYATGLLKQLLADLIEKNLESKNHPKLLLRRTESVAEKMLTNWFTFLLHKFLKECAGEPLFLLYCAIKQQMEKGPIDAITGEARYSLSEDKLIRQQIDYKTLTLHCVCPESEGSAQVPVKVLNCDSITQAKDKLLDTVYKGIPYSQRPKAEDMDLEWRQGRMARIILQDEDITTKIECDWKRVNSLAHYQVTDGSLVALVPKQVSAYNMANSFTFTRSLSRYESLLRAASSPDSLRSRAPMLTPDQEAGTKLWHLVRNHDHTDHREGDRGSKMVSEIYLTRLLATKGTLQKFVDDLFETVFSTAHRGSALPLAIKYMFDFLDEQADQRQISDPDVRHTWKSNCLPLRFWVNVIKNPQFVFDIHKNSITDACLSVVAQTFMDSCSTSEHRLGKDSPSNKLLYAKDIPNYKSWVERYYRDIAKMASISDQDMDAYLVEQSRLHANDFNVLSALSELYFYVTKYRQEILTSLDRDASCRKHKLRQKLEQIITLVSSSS
UniProt P70206: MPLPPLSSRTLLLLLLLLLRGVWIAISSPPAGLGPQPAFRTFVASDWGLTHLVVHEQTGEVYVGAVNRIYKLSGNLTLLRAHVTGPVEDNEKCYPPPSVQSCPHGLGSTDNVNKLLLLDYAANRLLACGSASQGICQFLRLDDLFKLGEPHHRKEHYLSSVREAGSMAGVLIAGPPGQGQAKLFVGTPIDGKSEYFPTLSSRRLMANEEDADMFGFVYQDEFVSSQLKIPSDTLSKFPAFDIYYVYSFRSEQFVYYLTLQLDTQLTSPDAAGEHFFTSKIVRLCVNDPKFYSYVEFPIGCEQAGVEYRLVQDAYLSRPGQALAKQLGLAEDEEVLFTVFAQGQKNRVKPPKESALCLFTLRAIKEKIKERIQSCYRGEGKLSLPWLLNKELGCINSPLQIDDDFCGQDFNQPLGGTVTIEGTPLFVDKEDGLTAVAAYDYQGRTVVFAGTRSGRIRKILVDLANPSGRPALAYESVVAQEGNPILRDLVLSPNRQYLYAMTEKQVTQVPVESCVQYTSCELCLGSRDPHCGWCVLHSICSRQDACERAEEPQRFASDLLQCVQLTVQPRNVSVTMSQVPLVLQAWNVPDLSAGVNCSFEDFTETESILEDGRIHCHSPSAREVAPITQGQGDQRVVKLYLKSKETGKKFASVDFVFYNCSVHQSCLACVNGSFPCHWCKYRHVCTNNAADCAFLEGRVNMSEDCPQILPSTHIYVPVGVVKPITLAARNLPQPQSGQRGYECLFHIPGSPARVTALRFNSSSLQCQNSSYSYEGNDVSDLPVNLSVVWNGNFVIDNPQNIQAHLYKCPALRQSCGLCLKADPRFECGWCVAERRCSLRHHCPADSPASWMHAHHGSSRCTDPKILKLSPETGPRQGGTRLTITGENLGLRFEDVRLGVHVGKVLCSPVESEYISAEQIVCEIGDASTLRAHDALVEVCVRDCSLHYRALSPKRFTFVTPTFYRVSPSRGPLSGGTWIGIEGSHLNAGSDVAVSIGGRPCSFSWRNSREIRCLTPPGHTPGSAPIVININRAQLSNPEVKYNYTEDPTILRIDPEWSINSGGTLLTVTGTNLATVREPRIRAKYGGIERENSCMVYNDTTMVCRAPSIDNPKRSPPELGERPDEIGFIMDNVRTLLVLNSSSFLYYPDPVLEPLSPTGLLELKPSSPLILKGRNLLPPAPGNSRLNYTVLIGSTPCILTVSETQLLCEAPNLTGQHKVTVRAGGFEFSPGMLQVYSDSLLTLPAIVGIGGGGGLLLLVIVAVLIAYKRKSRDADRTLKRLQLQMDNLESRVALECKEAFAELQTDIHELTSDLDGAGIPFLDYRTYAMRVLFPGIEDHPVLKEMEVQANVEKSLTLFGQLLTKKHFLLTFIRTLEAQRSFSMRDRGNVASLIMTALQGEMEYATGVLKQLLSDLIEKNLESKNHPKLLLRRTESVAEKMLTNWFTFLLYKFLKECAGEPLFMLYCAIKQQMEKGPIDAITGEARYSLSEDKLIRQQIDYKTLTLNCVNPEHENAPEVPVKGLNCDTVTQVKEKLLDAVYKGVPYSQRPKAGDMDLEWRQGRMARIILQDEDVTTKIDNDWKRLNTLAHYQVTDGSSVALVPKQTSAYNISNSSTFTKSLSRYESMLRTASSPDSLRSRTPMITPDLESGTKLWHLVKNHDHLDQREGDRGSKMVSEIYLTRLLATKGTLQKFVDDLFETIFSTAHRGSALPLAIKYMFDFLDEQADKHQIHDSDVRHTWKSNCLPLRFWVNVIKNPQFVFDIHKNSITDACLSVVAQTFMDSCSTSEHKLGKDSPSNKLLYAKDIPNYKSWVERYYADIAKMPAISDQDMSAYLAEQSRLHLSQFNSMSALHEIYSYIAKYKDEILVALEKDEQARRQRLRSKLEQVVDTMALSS

These are yes or no findings as the source states them, for the method shown. For some assays here: In cells and extracts the contact can be indirect. Some binding calls cover weakened binding; strength is not graded here. For some assays here: Tags and fused reporters may be left off the sequences shown.

In experiment [1] the target is T1, 6xMyc-Sema5A^ΔTSR-GFP (rat) (UniProt D3ZTD8).
T1 sequence: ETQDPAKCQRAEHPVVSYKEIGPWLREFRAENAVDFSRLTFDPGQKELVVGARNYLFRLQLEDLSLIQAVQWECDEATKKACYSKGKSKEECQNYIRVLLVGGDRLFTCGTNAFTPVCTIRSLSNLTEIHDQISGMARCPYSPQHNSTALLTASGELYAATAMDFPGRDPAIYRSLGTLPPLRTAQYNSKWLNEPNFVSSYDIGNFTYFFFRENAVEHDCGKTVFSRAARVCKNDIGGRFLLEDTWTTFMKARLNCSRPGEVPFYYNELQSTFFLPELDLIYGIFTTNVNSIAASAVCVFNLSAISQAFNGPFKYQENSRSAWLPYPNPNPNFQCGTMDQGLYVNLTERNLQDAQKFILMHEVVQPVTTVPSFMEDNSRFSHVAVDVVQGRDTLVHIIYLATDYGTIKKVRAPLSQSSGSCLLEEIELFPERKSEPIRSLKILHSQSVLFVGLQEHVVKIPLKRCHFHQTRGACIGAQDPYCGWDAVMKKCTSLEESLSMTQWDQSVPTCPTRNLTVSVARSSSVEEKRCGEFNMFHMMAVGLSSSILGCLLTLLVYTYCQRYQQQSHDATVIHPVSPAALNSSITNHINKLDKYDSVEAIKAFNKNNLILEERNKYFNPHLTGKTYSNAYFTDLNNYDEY
The experiment in a line: co-IP; HEK293T cells co-transfected (low-density cultures); lysis in 20 mM TrisHCl pH 7.5, 150 mM NaCl, 1% CHAPS, 1% Triton X-100; IP with mouse anti-GFP, anti-myc immunoblot.

The target in experiment [2] is T2, 6xMyc-FL-Sema5A-GFP (rat) (UniProt D3ZTD8).
T2 sequence: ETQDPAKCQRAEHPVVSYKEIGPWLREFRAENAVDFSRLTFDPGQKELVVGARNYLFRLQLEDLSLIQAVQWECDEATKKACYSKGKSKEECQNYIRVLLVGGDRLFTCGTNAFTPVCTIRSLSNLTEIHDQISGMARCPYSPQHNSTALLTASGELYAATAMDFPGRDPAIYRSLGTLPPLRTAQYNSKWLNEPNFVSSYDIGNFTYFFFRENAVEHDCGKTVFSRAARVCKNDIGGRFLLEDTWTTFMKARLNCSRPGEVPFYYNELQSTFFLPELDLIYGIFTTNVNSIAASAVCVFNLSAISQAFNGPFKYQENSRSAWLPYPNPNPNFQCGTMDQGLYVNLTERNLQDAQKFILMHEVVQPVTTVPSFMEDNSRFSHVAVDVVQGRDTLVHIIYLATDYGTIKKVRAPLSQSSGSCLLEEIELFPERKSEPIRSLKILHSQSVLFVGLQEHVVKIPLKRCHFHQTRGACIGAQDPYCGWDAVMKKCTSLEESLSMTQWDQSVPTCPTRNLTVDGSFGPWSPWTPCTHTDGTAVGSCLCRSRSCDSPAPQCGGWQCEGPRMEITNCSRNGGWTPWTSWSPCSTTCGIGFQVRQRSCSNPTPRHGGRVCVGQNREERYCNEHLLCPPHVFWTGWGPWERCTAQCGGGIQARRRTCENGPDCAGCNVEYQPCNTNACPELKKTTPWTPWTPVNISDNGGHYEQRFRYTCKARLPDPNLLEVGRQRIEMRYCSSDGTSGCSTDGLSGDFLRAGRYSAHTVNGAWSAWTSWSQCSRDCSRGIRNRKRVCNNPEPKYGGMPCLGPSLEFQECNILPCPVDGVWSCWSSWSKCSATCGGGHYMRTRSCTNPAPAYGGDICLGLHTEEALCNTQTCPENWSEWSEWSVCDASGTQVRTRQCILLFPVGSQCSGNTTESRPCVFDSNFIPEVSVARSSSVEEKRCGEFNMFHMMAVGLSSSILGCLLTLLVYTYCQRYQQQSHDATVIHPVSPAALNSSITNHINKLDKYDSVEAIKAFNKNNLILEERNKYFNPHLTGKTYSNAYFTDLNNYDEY
The experiment is described as above.

In another experiment the target is T3, FL-Sema6D (UniProt Q76KF0).
T3 sequence: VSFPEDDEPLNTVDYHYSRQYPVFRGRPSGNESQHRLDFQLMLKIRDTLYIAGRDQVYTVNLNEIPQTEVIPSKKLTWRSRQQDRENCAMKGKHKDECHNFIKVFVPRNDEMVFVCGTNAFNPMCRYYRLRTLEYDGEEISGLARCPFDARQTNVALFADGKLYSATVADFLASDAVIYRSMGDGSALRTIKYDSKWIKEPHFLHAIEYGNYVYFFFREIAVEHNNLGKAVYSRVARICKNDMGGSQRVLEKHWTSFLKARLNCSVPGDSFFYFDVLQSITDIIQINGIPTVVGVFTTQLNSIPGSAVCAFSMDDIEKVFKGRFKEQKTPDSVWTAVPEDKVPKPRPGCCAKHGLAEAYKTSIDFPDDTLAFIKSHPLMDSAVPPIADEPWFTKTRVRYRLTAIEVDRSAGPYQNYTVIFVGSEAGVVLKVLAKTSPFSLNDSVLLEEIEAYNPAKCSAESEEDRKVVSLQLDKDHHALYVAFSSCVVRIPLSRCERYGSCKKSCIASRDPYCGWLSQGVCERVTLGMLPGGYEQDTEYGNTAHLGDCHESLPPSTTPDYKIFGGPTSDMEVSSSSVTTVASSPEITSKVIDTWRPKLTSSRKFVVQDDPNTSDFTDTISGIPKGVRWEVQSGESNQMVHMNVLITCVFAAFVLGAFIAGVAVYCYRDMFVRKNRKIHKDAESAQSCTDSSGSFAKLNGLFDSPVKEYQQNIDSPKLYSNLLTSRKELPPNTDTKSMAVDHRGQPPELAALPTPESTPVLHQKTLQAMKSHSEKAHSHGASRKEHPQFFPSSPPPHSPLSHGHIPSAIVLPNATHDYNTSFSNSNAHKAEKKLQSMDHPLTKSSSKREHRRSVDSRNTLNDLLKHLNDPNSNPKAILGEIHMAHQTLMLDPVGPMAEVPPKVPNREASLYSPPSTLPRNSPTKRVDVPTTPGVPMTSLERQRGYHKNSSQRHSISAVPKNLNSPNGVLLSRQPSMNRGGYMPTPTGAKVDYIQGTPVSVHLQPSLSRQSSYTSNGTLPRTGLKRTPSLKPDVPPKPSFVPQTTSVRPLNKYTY
The experiment in a line: binding of AP-clustered Fc fusion protein to transfected cells; COS7 cells transfected with PlexA or semaphorin constructs, incubated 75 min in OptiMEM with Fc fusion protein preclustered with anti-human IgG conjugated to alkaline phosphatase; rinsed, fixed, developed with NBT/BCIP; only the binder purified.

In experiment [3] the target is T4, 6xMyc N-terminal-tagged full-length (FL)-Sema5A (rat) (UniProt D3ZTD8).
T4 sequence: T2 sequence
Described as above.

The target in experiment [4] is T5, membrane-bound Sema5A lacking the seven TSRs (6xMyc-Sema5A^ΔTSR) (rat) (UniProt D3ZTD8).
T5 sequence: T1 sequence
The experiment is described as above.

Experiment [5] addresses T6, Sema5A-Fc (Sema5A ectodomain fused to Fc) (rat) (UniProt D3ZTD8).
T6 sequence: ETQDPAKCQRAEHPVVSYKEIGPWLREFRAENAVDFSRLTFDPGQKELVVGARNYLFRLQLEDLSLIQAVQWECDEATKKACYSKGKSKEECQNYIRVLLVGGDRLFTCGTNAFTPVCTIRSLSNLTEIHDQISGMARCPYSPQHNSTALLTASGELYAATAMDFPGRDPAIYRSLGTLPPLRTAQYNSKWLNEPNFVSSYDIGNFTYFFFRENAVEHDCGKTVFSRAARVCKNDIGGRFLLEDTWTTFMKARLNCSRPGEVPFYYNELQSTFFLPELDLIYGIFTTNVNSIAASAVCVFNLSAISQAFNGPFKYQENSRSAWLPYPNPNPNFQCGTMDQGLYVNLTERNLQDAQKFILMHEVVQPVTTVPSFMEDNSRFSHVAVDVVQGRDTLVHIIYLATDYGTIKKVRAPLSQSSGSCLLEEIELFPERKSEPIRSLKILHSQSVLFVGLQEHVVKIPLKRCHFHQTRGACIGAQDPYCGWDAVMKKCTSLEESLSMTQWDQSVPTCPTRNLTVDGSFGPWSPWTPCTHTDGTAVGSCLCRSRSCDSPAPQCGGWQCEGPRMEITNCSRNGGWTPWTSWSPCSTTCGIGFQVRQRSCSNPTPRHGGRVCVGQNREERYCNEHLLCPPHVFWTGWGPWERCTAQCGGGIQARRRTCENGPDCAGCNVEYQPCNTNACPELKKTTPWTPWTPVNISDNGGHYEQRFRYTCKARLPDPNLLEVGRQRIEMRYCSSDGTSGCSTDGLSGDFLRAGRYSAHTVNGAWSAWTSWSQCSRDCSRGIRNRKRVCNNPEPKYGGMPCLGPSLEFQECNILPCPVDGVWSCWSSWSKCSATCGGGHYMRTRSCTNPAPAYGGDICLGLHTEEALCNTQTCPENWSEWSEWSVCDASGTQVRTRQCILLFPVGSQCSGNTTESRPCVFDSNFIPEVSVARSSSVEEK
The experiment in a line: pull-down; Sema5A-Fc or human IgG (50 nM) incubated with 6xMyc-tagged PlexA1 or PlexA2 ectodomain produced in HEK293T cells, pulled down with Protein G Plus/Protein A-agarose beads, anti-myc immunoblot; only the target purified.

Turning to “full-length PlexA2 with an N-terminal 6xMyc tag (from UniProt P70207 35-1894) (receptor)”, the binding entry in experiment [1] and in experiment [2] was “binds” each time. Regarding “full-length PlexA3 with an N-terminal 6xMyc tag (from UniProt P70208 20-1872) (receptor)”, the binding entry in experiment [1] and in experiment [2] was “no binding” in each case. On to “sema domain of PlexA1 fused to Fc (PlexA1^SD-Fc) (from UniProt P70206 28-580) (Fc fusion)”, for which the binding entry (with FL-Sema6D; in experiment [3]; in experiment [4]) was “binds” each time. With “PlexA1 lacking the cytoplasmic domain (PlexA1^Δcyt) (from UniProt P70206 28-1283) (receptor)”, the binding entry in experiment [1] was “binds”. Consider “full-length PlexA1 with an N-terminal 6xMyc tag (from UniProt P70206 28-1894) (receptor)”, for which the binding entry in experiment [1] and in experiment [2] was “binds” each time. “6xMyc-tagged PlexA1 ectodomain (6x-myc-PlexA1^ect) (from UniProt P70206 28-1242) (domain or fragment)”: the binding entry in experiment [5] is “binds”.
